Values from PubChem BioAssay AID652272 (Drosophila RNAi Screening Center, 2013)

Aim: 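Genes whose knock-down decreases or increases Hedgehog reporter output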 (primary screen)
Cell system: Drosophila clone 8 (Cl8) cells
Reagent: long dsRNA against Drosophila genes
Read-out: 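Plate reader light from a firefly reporter under a ptc promoter fragment that responds to Hedgehog, with Renilla light as transfection reference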
Reading the numbers: firefly Hh reporter signal: higher = more ptc reporter light; Renilla reference signal: higher = more Renilla control light
Rule for the call: 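Hit when the z-score averaged over two replicates is under -2 or over +3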
Meaning of the calls: active = hit: reporter lowered or raised; inactive = not a hit
In all, the deposit lists about 21,000 reagents; below is a random part of those that have a named target and a result. Of all reagents, 503 (2.4%) are marked active. 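Raw plate light values, not normalised; calls rest on replicate z-scores that were not deposited; hits include reporter decreases as well as increases.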 A number with no mark means an inactive call. The numbers tell different reagents against one gene apart. Names joined by + are all predicted targets of the reagent. Not given: the amount of reagent, the time to read-out.

| gene | dsRNA no. | firefly Hh reporter signal, replicate 1 | firefly Hh reporter signal, replicate 2 | Renilla reference signal, replicate 1 | Renilla reference signal, replicate 2 |
| --- | --- | --- | --- | --- | --- |
| CkIIbeta2 (Casein kinase II beta2 subunit) | 1 | 54048 | 43878 | 1993 | 4509 |
| Tif-IA | 1 | 77067 (active) | 46375 | 4313 | 2946 |
| Tif-IA | 2 | 64488 (active) | 32490 | 2672 | 4877 |
| Tctp (Translationally controlled tumor protein) | 1 | 48150 | 1.27e5 | 1829 | 3392 |
| CG5623 | 1 | 1.45e5 | 1.17e5 | 5189 | 3340 |
| Sr-CIV (Scavenger receptor class C, type IV) | 1 | 1.36e5 | 59168 | 3504 | 6464 |
| RpLP2 (Ribosomal protein LP2) | 1 | 26288 (active) | 13739 | 1075 | 2049 |
| CG8230 | 1 | 67436 | 41955 | 1625 | 3627 |
| CG15356 | 1 | 72346 | 87094 | 1752 | 2152 |
| Ype (Yippee) | 1 | 1.08e5 | 98128 | 2988 | 2121 |
| Rbp4 (RNA-binding protein 4) | 1 | 68338 | 81429 | 1514 | 1906 |
| CG7755 | 1 | 1.66e5 | 89840 | 4449 | 7872 |
| Ank2 (Ankyrin 2) | 1 | 1.22e5 | 2.55e5 | 2981 | 8969 |
| Ank2 (Ankyrin 2) | 2 | 59232 | 67451 | 4672 | 4720 |
| Ank2 (Ankyrin 2) | 3 | 59640 | 54121 | 4993 | 4164 |
| Ank2 (Ankyrin 2) | 4 | 69387 | 45984 | 5472 | 3340 |
| Gcn5 (Gcn5 acetyltransferase) | 1 | 67211 | 49220 | 3542 | 2337 |
| CG10097 + CG10096 | 1 | 1.06e5 | 92785 | 4523 | 3792 |
| CG10097 + CG10096 | 2 | 67952 | 1.35e5 | 2599 | 3175 |
| LysRS (Lysyl-tRNA synthetase) | 1 | 63088 | 45777 | 1716 | 1152 |
| AttC (Attacin-C) | 1 | 68752 | 61210 | 1494 | 3917 |
| PK2-R1 (Pyrokinin 2 receptor 1) | 1 | 89866 | 87426 | 2823 | 2546 |
| bab2 (bric a brac 2) | 1 | 66310 | 27851 | 2227 | 2288 |
| bab2 (bric a brac 2) | 2 | 42912 | 31367 | 1713 | 2640 |
| Lip2 (Lipase 2) | 1 | 97259 | 43424 | 2592 | 4497 |
| Lip2 (Lipase 2) | 2 | 1.58e5 | 37080 | 3875 | 5722 |
| CG14417 | 1 | 69293 | 2.01e5 | 2397 | 8918 |
| lncRNA:CR32553 (long non-coding RNA:CR32553) | 1 | 6.24e5 | 2.25e5 | 37403 | 5130 |
| Npc1b (Niemann-Pick type C-1b) | 1 | 96020 | 1.61e5 | 3478 | 7159 |
| CG15408 | 1 | 1.04e5 | 54322 | 2445 | 5200 |
| CG5002 | 1 | 1.30e5 | 72762 | 5109 | 3078 |
| CG5916 | 1 | 1.12e5 | 79179 | 4720 | 3154 |
| tap (target of Poxn) | 1 | 1.28e5 | – | 2186 | 3549 |
| Cp190 (Centrosomal protein 190kD) | 1 | 80613 | 98840 | 3072 | 3865 |
| ATPsynC (ATP synthase, subunit C) | 1 | 66803 | 1.00e5 | 1642 | 3168 |
| Syt12 (Synaptotagmin 12) | 1 | 79248 | 3.36e5 | 2696 | 11926 |
| Dera (Deoxyribose-phosphate aldolase) | 1 | 1.66e5 | 1.14e5 | 7443 | 4535 |
| CHKov1 (CHK domain ov1) | 1 | 96122 | 1.86e5 | 2453 | 7744 |
| CHKov1 (CHK domain ov1) | 2 | 1.12e5 | 2.61e5 | 15335 | 11203 |
| CHKov1 (CHK domain ov1) | 3 | 4.01e5 | 75443 | 25392 | 2073 |
| CHKov1 (CHK domain ov1) | 4 | 5.99e5 | 2.23e5 | 34096 | 4314 |

Already shown: 2 of the entries above.
| gene | dsRNA no. | firefly Hh reporter signal, replicate 1 | firefly Hh reporter signal, replicate 2 | Renilla reference signal, replicate 1 | Renilla reference signal, replicate 2 |
| --- | --- | --- | --- | --- | --- |
| LysRS (Lysyl-tRNA synthetase) | 1 | 63088 | 45777 | 1716 | 1152 |
| AttC (Attacin-C) | 1 | 68752 | 61210 | 1494 | 3917 |
